{"source": "PubChem BioAssay AID504804 | Drosophila RNAi Screening Center, 2011", "purpose": "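Fly genes whose loss lessens doxorubicin-driven cell death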 (primary screen)", "system": "Drosophila Kc cells", "reagents": "long dsRNA against Drosophila genes, 0.5 µg dsRNA per well", "duration": "96 h (48 h knock-down, then 48 h drug)", "challenge": "doxorubicin 5 µg/ml for 48 h, added 48 h after dsRNA", "measured": "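Viability measured as cellular ATP by luminescence after 48 h knock-down then 48 h doxorubicin at 5 µg/ml; unnormalised plate counts for each replicate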", "direction": "raw ATP luminescence: higher = more viable cells, protection from doxorubicin", "hit rule": "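z-score of 2 or more over plate mean in both duplicates, retained only when retests and separate dsRNAs confirm the protection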", "note": "The deposit covers about 19,000 reagents; shown is a random part of those that have a named target and a result. Of all reagents, 47 (0.25%) got an active call. 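Signals are raw, not normalised; exact z-scores behind calls not deposited; actives needed confirmation, so some wells reaching 2 SD are inactive.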 Reagents against one gene are numbered here."}
{"gene": "CG8607", "reagent no.": 1, "raw ATP luminescence, replicate 1": 73290, "raw ATP luminescence, replicate 2": 99203, "activity call": "inactive"}
{"gene": "CG12691", "reagent no.": 1, "raw ATP luminescence, replicate 1": 40120, "raw ATP luminescence, replicate 2": 49630, "activity call": "inactive"}
{"gene": "CG1529", "reagent no.": 1, "raw ATP luminescence, replicate 1": 2.57e5, "raw ATP luminescence, replicate 2": 2.76e5, "activity call": "inactive"}
{"gene": "CG2059", "reagent no.": 1, "raw ATP luminescence, replicate 1": 41440, "raw ATP luminescence, replicate 2": 51090, "activity call": "inactive"}
{"gene": "CG8701", "reagent no.": 1, "raw ATP luminescence, replicate 1": 71470, "raw ATP luminescence, replicate 2": 61157, "activity call": "inactive"}
{"gene": "msk (moleskin)", "reagent no.": 1, "raw ATP luminescence, replicate 1": 33203, "raw ATP luminescence, replicate 2": 41793, "activity call": "inactive"}
{"gene": "CG6847", "reagent no.": 1, "raw ATP luminescence, replicate 1": 1.92e5, "raw ATP luminescence, replicate 2": 2.23e5, "activity call": "inactive"}
{"gene": "CG6847", "reagent no.": 2, "raw ATP luminescence, replicate 1": 3.65e5, "raw ATP luminescence, replicate 2": 3.31e5, "activity call": "inactive"}
{"gene": "IntS3 (Integrator 3)", "reagent no.": 1, "raw ATP luminescence, replicate 1": 2.88e5, "raw ATP luminescence, replicate 2": 3.37e5, "activity call": "inactive"}
{"gene": "CG33333", "reagent no.": 1, "raw ATP luminescence, replicate 1": 1.79e5, "raw ATP luminescence, replicate 2": 2.29e5, "activity call": "inactive"}
{"gene": "CG7945", "reagent no.": 1, "raw ATP luminescence, replicate 1": 29700, "raw ATP luminescence, replicate 2": 23643, "activity call": "inactive"}
{"gene": "CG6836", "reagent no.": 1, "raw ATP luminescence, replicate 1": 25380, "raw ATP luminescence, replicate 2": 27010, "activity call": "inactive"}
{"gene": "ppk11 (pickpocket 11)", "reagent no.": 1, "raw ATP luminescence, replicate 1": 39030, "raw ATP luminescence, replicate 2": 58710, "activity call": "inactive"}
{"gene": "dgt5 (dim gamma-tubulin 5)", "reagent no.": 1, "raw ATP luminescence, replicate 1": 79160, "raw ATP luminescence, replicate 2": 65807, "activity call": "inactive"}
{"gene": "Osi16 (Osiris 16)", "reagent no.": 1, "raw ATP luminescence, replicate 1": 73947, "raw ATP luminescence, replicate 2": 65993, "activity call": "inactive"}
{"gene": "SpdS (Spermidine Synthase)", "reagent no.": 1, "raw ATP luminescence, replicate 1": 62213, "raw ATP luminescence, replicate 2": 62677, "activity call": "inactive"}
{"gene": "CG14440", "reagent no.": 1, "raw ATP luminescence, replicate 1": 12390, "raw ATP luminescence, replicate 2": 16820, "activity call": "inactive"}
{"gene": "CG12780", "reagent no.": 1, "raw ATP luminescence, replicate 1": 42497, "raw ATP luminescence, replicate 2": 77853, "activity call": "inactive"}
{"gene": "CG8490", "reagent no.": 1, "raw ATP luminescence, replicate 1": 80923, "raw ATP luminescence, replicate 2": 52773, "activity call": "inactive"}

A stretch taken from the entries so far:
{"gene": "CG6836", "reagent no.": 1, "raw ATP luminescence, replicate 1": 25380, "raw ATP luminescence, replicate 2": 27010, "activity call": "inactive"}
{"gene": "ppk11 (pickpocket 11)", "reagent no.": 1, "raw ATP luminescence, replicate 1": 39030, "raw ATP luminescence, replicate 2": 58710, "activity call": "inactive"}
